# From PubChem BioAssay AID445 (National Center for Advancing Translational Sciences (NCATS), 2006)
# The list shows a part of the results. The main result of the screen is listed elsewhere. These columns were measured beside it and carry no call. The list favours compounds with an active or inconclusive main result. Words in brackets tell the shape of the fitted curve; partial curves, single points and poor fits give uncertain potencies.
# Assay: IkB Signaling
# Conditions: ABC-DLBCL IkBa-CBG/CBR dual luciferase ratio (green luciferase fused to IkBa over red control in OCI-Ly3 lymphoma cells), 4 h
# Method in brief: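 Luminescence ratio of IκBα-fused green versus native red beetle luciferase in OCI-Ly3 cells, 4 h post-doxycycline with compound; red signal alone, scaled from basal (0%) to zero light (-100%), flagged nonspecific or cytotoxic effects.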
# [1] = measured here: control luc red channel unless noted
# [2] = measured here: IkB-luc green channel
# [3] = measured here: control luc red channel
smiles,measurement,setting,value
CCOc1ccc(-n2c(SCC(=O)N3CCOCC3)nc3c([nH]c4ccccc43)c2=O)cc1,AC50,[1],"1 µM [rising, full curve, poor fit]"
Cc1ccc(Cl)cc1-n1ncc2c(NC3CCCCCC3)ncnc21,AC50,[1],"3.98 µM [falling, partial curve]"
Cc1ccc(-n2nc(C(=O)N3CCC(C)CC3)c(=O)n(C)c2=O)cc1,AC50,[1],"2 µM [falling, partial curve]"
Fc1ccc(-c2nnc(-c3ccc(Cl)cc3Cl)o2)cc1,AC50,[1],"2 µM [falling, full curve, poor fit]"
Cc1ccc(Nc2c(-c3c[nH]c4ccccc34)nc3cc(C)ccn23)cc1,AC50,[1],"0.00794 µM [falling, full curve]"
COc1cc(OC)c(OC)cc1/C=C/c1nc2cc3ccccc3cc2c(=O)n1-c1ccc(Cl)cc1,AC50,[1],"2.51 µM [falling, full curve]"
CC(C)OCCCNC(=O)c1ccc2c(c1)N(Cc1c(F)cccc1Cl)C(=O)c1ccccc1S2,AC50,[1],"3.98 µM [falling, partial curve]"
COc1ccc(-c2nn3c(=O)cc(CN4CCN(C(=O)c5ccc(C(C)(C)C)cc5)CC4)nc3s2)cc1,AC50,[1],"31.6 µM [falling, single point]"
COc1ccc(C(=O)NCC(c2cccnc2)N2CCc3ccccc32)cc1 (centres undefined),AC50,[1],"25.1 µM [falling, single point]"
O=C(CCC1N=C2c3ccccc3N=C(SCc3ccc(F)cc3)N2C1=O)NCc1cccs1 (centres undefined),AC50,[1],"5.01 µM [falling, partial curve]"
CCOC(=O)C1=C(CS(=O)(=O)c2cccc(C(F)(F)F)c2)NC(=O)NC1c1cccc(OC)c1 (centres undefined),AC50,[1],"0.2 µM [falling, full curve, poor fit]"
CCC(C(=O)Nc1cc(Cl)ccc1OC)n1nc(-c2ccccc2)ccc1=O (centres undefined),AC50,[1],"25.1 µM [falling, single point]"
CCCCN(C)CCCNC(=O)C1CCN(c2nc3ccc(CC)cc3s2)CC1,AC50,[1],"2 µM [falling, full curve, poor fit]"
CC(C)c1ccc(NC(=O)C2CCCN(S(=O)(=O)c3cccc4cccnc34)C2)cc1 (centres undefined),AC50,[1],"3.98 µM [rising, partial curve]"
COc1ccc(OC)c(NC(=O)c2noc3c2CCCC3)c1,AC50,[1],"3.98 µM [falling, single point]"
O=C(O)C1C2C=CC(O2)C1C(=O)Nc1ccc2c(c1)OCCO2 (centres undefined),AC50,[1],"10 µM [falling, partial curve]"
Cc1ccc(OC(C)C(=O)Nc2nonc2-c2ccc(Br)cc2)cc1C (centres undefined),AC50,[1],"25.1 µM [falling, partial curve]"
COCCNc1ncnc2ccc(-c3c(C)noc3C)cc12,AC50,[1],"1 µM [rising, full curve] [measured here: IkB-luc green channel]"
O=C(Nc1c(Cl)cccc1Cl)c1cc(-c2ccc3c(c2)OCO3)on1,AC50,[1],"0.158 µM [falling, full curve]"
Cc1ccc2nc(N(Cc3cccnc3)C(=O)COc3ccccc3)sc2c1,AC50,[1],"3.98 µM [rising, full curve, poor fit]"
CCOC(=O)Cn1c(=O)oc2cc(S(=O)(=O)N3CCN(c4cccc(C)c4C)CC3)ccc21,AC50,[1],"6.31 µM [falling, partial curve]"
O=C(NCc1ccco1)c1cc2c(s1)CCCCC2,AC50,[2],"25.1 µM [rising, partial curve]"
same,AC50,[3],"12.6 µM [falling, partial curve]"
Cc1ccc(NC(=O)C2C(=O)N(CCO)C3(C)CC2c2ccccc2O3)cc1 (centres undefined),AC50,[1],"1.26 µM [falling, full curve, poor fit]"
CCCOc1cccc(C(=O)Nc2cccc(NC(=O)c3ccc(C(C)(C)C)cc3)c2)c1,AC50,[1],"0.794 µM [falling, full curve]"
COc1ccc(CCNC(=O)C2(c3cccs3)CCOCC2)cc1OC,AC50,[1],"1.26 µM [rising, full curve, poor fit]"
COc1ccc(-c2nc3c4ccccc4n(CC(=O)Nc4cc(F)ccc4F)c(=O)n3n2)cc1,AC50,[1],"20 µM [falling, partial curve]"
CCCCC(=O)Nc1ccccc1C(=O)OCc1cc(=O)n2nc(C3CCCCC3)sc2n1,AC50,[1],"3.16 µM [falling, full curve]"
O=C(CSc1nccn1-c1ccc(F)cc1)Nc1ccc(OC(F)(F)F)cc1,AC50,[1],"12.6 µM [rising, partial curve, poor fit]"
CCOC(=O)c1c(C)oc2ccc(NS(=O)(=O)c3ccc4c5c(cccc35)C(=O)N4)cc12,AC50,[1],"7.94 µM [falling, partial curve]"
CCc1cc2c(=O)n(Cc3ccco3)c(SCc3c(C)noc3C)nc2s1,AC50,[1],"25.1 µM [falling, partial curve]"
Cc1ccc2c(C)c(C(=O)N(Cc3ccc(Cl)cc3)C3CCS(=O)(=O)C3)oc2c1 (centres undefined),AC50,[1],"39.8 µM [falling, single point]"
O=C1CN(C(=O)c2ccccc2C(F)(F)F)C(c2ccccc2)c2cc(F)ccc2N1 (centres undefined),AC50,[1],"25.1 µM [falling, single point]"
c1ccc2c(c1)ccc1cc3c(ccc4ccccc43)cc12,AC50,[1],"0.02 µM [falling, full curve]"
CCCNc1c(NC(=O)c2ccc(OCCC)cc2)c(=O)oc2ccccc12,AC50,[1],"1 µM [falling, full curve, poor fit]"
CCCCC#Cc1nc(N)c2ncn([C@@H]3O[C@@H](C(=O)NCC)[C@H](O)[C@@H]3O)c2n1,AC50,[2],"0.000631 µM [rising, full curve, poor fit]"
same,AC50,[3],"0.00398 µM [rising, full curve]"
COc1cc(Cl)c(C)cc1NC(=O)c1sc2nc3n(c(=O)c2c1C)CCCCC3,AC50,[1],"25.1 µM [falling, partial curve]"
Cn1c(SCc2ccc(C(F)(F)F)cc2)nc2c([nH]c3ccccc32)c1=O,AC50,[1],"0.158 µM [rising, full curve]"
COc1cc(C(=O)NCC(c2cccnc2)N2CCc3ccccc32)cc(OC)c1OC (centres undefined),AC50,[1],"10 µM [falling, partial curve]"
COc1cc2c(cc1NC(=O)CSCC(=O)O)oc1ccccc12,AC50,[1],"1.26 µM [falling, full curve]"
CC(=O)c1c(C)oc2c(Cl)cc(NS(=O)(=O)c3ccc(Cl)cc3)cc12,AC50,[1],"0.631 µM [rising, full curve]"
CCCCOC(=O)CSc1nnc(-c2cc(OC)c(OC)c(OC)c2)o1,AC50,[2],"25.1 µM [rising, single point]"
same,AC50,[3],"31.6 µM [falling, single point]"
O=C(Nc1ccc(-c2nnco2)cc1)c1ccccc1,AC50,[1],"10 µM [falling, partial curve]"
Cc1ccc(CSc2ncc(Cl)c(C(=O)NCCc3ccc(S(N)(=O)=O)cc3)n2)cc1,AC50,[1],"31.6 µM [rising, partial curve]"
COc1ccc(NC(=O)CSc2nc(-c3ccc(OC)cc3)[nH]c2-c2ccc(OC)cc2)cc1,AC50,[1],"3.16 µM [falling, partial curve]"
C=CCn1c(SCC(=O)NCCCC)nc2scc(-c3ccco3)c2c1=O,AC50,[1],"5.01 µM [rising, full curve] [measured here: IkB-luc green channel]"
COC(=O)c1ccc(Nc2nnc(-c3ccc(C)c(S(=O)(=O)N4CCN(C)CC4)c3)c3ccccc23)cc1,AC50,[1],"20 µM [falling, partial curve]"
COc1ccc(-c2nc3ccccc3s2)cc1NC(=O)COc1ccc(C)cc1,AC50,[1],"2.51 µM [rising, partial curve]"
COC(=O)c1[nH]c2ccc(Br)cc2c1NC(=O)C(C)N1CCN(C2CCCCC2)CC1 (centres undefined),AC50,[1],"31.6 µM [falling, partial curve]"
O=C(NCc1ccco1)c1cccc(-c2nnc(-c3ccccc3)o2)c1,AC50,[1],"3.98 µM [falling, full curve]"
CCOCCCN1C(=O)CN(C2CCCCCC2)C(=O)C1c1ccc(OC(C)C)c(OC)c1 (centres undefined),AC50,[1],"20 µM [falling, partial curve]"
CCC1CCCCN1S(=O)(=O)c1ccc(C(=O)Nc2sc3c(c2C(=O)NC)CCC3)cc1 (centres undefined),AC50,[1],"3.16 µM [falling, partial curve]"
O=C(O)COc1ccccc1C1C2C(=O)N(c3ccccc3)C(=O)C2ON1c1ccccc1 (centres undefined),AC50,[1],"1.58 µM [falling, full curve]"
COc1ccccc1CNC(=O)c1oc2ccc(S(=O)(=O)N3CCCCC3)cc2c1C,AC50,[1],"25.1 µM [falling, partial curve, poor fit]"
Cc1nn(-c2ccccc2)c(OC(=O)C(C)C)c1Sc1ccccc1,AC50,[1],"3.98 µM [falling, partial curve]"
Cc1ccc(NC(=O)Cc2ccc(-n3c(C)nc4cccnc43)cc2)cc1C,AC50,[1],"25.1 µM [falling, single point]"
CCOC(=O)c1cc(-c2ccccc2)n(CCCC(=O)Nc2ccc(C(C)C)cc2)c1C,AC50,[1],"31.6 µM [falling, partial curve]"
CCCCOc1ccc(S(=O)(=O)Nc2ccc(-c3ccc(N4CCCCCC4)nn3)cc2)cc1,AC50,[1],"3.16 µM [falling, full curve]"
COc1ccc(Cn2c(SCc3ccc(C(=O)NC4CCCC4)cc3)nc3ccncc32)cc1,AC50,[1],"25.1 µM [falling, single point]"
CCOC(=O)c1c(C)oc2ncnc(N3CCN(c4ccccc4OC)CC3)c12,AC50,[1],"20 µM [falling, partial curve]"
CCCN1CCN(CCNC(=O)Nc2ccc(OC)cc2OC)CC1,AC50,[1],"39.8 µM [falling, single point]"
O=C(CC1C(=O)N(c2ccccc2)C(=O)N1CCC1=CCCCC1)Nc1ccc(F)cc1 (centres undefined),AC50,[1],"31.6 µM [falling, single point]"

# Part of the list above in another layout:
smiles | measurement | setting | value
Cc1ccc(OC(C)C(=O)Nc2nonc2-c2ccc(Br)cc2)cc1C (centres undefined) | AC50 | [1] | 25.1 µM [falling, partial curve]
COCCNc1ncnc2ccc(-c3c(C)noc3C)cc12 | AC50 | [1] | 1 µM [rising, full curve] [measured here: IkB-luc green channel]
